The supplement of paper PMC11006884
The entries are a selection whose mix differs from that of the whole data set.

The chains behind the UniProt entries cited, without tags or fusion partners. Where a name states a change or a piece, a line headed by the entry shows the natural chain unless it says otherwise.
UniProt P60842, whole entry, looked up: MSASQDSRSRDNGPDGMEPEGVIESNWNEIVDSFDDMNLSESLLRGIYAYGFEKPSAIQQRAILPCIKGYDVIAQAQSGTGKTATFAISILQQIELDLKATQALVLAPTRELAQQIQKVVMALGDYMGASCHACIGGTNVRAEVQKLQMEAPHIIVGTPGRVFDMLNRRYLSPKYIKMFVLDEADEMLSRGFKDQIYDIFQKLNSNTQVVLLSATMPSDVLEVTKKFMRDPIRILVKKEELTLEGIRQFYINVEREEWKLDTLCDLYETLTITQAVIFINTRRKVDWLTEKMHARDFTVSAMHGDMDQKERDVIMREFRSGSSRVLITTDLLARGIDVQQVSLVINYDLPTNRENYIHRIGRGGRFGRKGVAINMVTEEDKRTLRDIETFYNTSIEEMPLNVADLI
UniProt P53350, whole entry, looked up: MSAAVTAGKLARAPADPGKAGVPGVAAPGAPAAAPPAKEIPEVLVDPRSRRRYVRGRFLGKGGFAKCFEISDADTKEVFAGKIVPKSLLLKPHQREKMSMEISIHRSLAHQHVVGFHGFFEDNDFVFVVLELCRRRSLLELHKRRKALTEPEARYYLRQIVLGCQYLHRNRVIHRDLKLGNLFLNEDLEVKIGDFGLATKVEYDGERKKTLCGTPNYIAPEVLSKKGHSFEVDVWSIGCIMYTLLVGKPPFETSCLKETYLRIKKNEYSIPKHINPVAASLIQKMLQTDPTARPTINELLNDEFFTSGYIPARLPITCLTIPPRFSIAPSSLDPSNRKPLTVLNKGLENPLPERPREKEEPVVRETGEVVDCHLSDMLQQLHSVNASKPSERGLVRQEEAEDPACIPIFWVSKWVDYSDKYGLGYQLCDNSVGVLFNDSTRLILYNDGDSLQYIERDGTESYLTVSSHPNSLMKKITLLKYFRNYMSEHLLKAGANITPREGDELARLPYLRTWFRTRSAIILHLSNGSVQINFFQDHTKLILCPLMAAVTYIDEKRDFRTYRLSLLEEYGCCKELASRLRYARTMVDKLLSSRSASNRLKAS
UniProt P56192: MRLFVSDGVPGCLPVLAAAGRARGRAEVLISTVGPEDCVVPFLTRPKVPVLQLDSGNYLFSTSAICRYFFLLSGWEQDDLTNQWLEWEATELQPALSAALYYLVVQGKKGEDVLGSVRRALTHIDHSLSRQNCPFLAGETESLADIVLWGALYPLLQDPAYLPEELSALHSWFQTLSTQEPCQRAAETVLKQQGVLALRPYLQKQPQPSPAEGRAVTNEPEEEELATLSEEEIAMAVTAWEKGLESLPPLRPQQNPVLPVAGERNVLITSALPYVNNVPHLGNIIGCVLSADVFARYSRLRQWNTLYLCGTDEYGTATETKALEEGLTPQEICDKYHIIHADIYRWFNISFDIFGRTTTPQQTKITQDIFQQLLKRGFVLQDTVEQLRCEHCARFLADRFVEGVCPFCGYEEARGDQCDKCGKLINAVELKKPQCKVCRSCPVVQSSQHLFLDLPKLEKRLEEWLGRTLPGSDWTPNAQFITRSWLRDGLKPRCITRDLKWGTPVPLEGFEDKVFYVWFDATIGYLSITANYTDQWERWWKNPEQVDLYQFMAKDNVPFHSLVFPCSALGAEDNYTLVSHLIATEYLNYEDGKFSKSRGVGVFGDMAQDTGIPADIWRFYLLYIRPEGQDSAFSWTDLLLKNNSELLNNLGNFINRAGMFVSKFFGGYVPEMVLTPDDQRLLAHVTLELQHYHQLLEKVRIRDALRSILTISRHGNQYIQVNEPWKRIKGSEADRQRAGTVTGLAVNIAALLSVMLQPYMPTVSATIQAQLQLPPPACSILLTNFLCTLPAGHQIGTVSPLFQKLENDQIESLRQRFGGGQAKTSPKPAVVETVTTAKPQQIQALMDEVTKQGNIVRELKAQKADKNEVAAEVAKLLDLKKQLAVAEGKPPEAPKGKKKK
UniProt P52701: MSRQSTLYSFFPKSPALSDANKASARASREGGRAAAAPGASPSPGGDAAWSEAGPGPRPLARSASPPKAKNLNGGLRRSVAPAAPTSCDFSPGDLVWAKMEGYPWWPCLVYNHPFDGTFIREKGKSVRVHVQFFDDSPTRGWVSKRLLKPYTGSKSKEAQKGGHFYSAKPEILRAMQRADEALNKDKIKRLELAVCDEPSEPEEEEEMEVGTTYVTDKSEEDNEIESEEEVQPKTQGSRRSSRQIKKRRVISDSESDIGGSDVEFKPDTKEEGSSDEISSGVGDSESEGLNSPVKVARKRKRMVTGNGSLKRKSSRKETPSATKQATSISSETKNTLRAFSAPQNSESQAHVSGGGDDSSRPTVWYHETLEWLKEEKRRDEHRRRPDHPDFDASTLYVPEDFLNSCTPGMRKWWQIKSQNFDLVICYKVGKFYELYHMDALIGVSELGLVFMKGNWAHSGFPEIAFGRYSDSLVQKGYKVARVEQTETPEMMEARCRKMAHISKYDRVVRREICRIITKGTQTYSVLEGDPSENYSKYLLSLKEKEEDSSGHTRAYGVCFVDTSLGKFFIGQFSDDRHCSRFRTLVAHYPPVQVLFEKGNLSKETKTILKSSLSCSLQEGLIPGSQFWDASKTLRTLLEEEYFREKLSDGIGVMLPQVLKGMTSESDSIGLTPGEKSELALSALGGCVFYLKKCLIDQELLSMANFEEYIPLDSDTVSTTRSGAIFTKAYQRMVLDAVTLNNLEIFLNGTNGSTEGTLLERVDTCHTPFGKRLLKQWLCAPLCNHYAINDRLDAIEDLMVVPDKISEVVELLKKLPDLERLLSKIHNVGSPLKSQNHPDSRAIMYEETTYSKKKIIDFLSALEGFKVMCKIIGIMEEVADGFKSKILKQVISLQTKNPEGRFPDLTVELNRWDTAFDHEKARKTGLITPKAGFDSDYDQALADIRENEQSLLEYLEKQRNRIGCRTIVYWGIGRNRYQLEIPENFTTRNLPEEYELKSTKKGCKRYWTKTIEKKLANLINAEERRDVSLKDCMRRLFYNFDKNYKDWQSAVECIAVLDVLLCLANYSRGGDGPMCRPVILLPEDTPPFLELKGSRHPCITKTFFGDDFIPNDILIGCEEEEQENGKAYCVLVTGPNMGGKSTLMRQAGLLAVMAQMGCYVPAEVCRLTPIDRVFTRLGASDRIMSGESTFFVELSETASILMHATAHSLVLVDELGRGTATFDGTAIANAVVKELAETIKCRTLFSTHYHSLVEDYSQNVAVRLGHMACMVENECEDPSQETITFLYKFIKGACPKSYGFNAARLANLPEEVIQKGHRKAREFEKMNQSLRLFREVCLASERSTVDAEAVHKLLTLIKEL
UniProt P61619, whole entry: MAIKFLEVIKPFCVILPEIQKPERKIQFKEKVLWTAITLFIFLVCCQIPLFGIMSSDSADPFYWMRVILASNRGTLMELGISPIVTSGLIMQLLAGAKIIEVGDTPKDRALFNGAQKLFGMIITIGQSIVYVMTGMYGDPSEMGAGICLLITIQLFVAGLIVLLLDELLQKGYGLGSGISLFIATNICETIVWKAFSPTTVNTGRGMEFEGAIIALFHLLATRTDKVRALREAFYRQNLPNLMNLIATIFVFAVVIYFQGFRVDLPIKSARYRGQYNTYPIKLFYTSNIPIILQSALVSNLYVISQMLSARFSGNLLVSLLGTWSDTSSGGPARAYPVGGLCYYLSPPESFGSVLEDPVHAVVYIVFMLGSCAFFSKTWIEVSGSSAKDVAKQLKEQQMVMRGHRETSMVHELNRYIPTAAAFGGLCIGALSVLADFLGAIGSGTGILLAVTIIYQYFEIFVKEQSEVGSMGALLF
UniProt P55072, whole entry, looked up: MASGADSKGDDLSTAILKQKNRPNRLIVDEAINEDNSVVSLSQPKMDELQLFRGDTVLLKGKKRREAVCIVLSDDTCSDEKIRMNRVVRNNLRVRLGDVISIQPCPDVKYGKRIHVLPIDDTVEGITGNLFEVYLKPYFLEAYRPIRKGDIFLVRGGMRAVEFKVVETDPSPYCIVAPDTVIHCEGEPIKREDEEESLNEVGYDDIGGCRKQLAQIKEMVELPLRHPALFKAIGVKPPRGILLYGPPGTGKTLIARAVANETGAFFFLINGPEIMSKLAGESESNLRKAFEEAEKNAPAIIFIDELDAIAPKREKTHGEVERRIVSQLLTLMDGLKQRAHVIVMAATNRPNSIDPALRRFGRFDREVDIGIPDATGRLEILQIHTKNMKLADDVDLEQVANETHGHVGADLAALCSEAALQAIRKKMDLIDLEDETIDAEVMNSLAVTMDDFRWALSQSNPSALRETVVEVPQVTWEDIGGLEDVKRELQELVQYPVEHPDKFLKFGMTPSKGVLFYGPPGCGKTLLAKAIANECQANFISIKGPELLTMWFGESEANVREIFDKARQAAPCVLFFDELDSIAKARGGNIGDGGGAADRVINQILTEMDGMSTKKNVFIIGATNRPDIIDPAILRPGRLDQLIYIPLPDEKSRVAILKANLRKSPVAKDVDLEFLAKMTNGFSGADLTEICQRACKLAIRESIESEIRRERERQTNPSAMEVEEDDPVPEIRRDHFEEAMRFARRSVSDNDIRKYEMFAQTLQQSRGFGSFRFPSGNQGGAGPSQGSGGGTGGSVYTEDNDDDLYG
UniProt P55769: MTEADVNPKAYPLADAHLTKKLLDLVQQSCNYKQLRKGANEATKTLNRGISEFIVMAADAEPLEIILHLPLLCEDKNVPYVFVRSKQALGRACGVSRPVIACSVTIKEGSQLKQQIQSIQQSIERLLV
UniProt P62258: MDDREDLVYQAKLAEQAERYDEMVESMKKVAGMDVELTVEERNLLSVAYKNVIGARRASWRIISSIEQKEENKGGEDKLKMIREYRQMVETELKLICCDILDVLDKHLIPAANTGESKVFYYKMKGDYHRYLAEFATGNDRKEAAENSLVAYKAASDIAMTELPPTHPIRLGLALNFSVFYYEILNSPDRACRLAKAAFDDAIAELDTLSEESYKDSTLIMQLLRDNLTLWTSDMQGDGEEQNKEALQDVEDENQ
UniProt P52597: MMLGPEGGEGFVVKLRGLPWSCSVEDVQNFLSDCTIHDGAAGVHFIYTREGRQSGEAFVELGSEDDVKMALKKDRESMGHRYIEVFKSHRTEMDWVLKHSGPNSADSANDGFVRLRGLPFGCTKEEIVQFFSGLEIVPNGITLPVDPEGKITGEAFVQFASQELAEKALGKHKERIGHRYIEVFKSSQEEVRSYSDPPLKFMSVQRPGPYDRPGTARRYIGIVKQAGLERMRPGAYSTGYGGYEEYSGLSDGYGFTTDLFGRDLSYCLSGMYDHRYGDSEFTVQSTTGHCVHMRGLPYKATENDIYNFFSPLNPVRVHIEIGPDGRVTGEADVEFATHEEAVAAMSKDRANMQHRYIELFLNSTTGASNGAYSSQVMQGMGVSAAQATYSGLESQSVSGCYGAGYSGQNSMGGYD
UniProt P60604: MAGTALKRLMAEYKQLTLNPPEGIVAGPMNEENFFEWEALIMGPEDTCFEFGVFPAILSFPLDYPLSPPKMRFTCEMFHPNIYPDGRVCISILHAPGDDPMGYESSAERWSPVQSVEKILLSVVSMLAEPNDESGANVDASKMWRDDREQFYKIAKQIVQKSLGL
UniProt P61077: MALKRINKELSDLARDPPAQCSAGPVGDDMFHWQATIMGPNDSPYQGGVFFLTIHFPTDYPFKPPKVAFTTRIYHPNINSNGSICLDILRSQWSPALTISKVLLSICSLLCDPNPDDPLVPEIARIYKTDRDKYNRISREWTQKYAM
UniProt P53611: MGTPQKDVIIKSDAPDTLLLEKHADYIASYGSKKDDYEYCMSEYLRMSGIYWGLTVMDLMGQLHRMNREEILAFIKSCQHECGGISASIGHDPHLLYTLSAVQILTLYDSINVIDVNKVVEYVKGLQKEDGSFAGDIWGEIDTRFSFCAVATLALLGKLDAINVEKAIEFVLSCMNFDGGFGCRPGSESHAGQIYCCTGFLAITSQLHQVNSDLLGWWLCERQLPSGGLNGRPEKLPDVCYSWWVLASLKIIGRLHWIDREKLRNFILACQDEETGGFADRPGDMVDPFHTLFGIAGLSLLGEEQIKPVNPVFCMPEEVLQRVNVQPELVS
UniProt P60228, whole entry, looked up: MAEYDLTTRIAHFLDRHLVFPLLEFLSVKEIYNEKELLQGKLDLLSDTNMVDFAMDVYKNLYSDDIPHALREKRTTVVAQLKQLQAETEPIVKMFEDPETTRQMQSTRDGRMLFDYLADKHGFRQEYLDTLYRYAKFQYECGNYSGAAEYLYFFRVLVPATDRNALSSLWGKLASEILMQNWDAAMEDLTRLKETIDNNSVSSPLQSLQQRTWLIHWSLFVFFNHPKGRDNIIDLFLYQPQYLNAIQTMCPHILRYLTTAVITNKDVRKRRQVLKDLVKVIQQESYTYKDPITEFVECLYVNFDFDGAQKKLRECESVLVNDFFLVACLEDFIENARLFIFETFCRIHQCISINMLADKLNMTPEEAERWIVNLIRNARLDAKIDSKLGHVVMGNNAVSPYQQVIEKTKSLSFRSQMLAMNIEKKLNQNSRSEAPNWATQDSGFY

What follows are targets tested with COC(=O)C#Cc1ccccc1 [methyl 3-phenylpropiolate] (assay: log2 ratio of iodoacetamide-alkyne labeling of the cysteine site, DMSO over compound (competition); higher = stronger covalent engagement of the cysteine by the compound, active = 1 or more). Details: 500 µM; treatment time 1 h; system: HEK293T cell lysate.
Outline: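 HEK293T lysate (2 mg/mL) was incubated with electrophile (500 µM) or vehicle for 1 h at ambient temperature and then with iodoacetamide alkyne for 1 h. Labelled proteins were clicked to sCIP-TMT reagents, pooled, digested, enriched on streptavidin and measured by Orbitrap Eclipse LC-MS/MS with FAIMS, with FragPipe quantification. The per-cysteine log2 competition ratio is mean control-channel reporter intensity over mean compound-channel reporter intensity. Across three replicates with duplicate channels, cysteines quantified in only one replicate were excluded.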

log2 ratio of iodoacetamide-alkyne labeling, inactive:
UniProt P60842_C134 0.0481
UniProt P55196_C324 0.605
PLK1 C405 (UniProt P53350) 0.726
MARS C566 (UniProt P56192) 0.0165
ADAR C392 (UniProt P55265) 0.693
MSH6 C1165 (UniProt P52701) -0.0115
UniProt P61619_C13 -0.166
UniProt P55072_C105 -0.00692
UniProt P55769_C73 -0.0299
HNRNPA3 C94 (UniProt P51991) 0.122
UniProt P62258_C97 -0.063
MSH6 C615 (UniProt P52701) 0.105
MSH6 C88 (UniProt P52701) 0.154
HNRNPF C122 (UniProt P52597) 0.157
LAMB2 C47 (UniProt P55268) 0.575
UniProt P60604_C89 0.246
HNRNPF C267 (UniProt P52597) 0.208
UniProt P61077_C111 0.106
HK2 C606 (UniProt P52789) 0.098
RABGGTB C40 (UniProt P53611) 0.157
MARS C38 (UniProt P56192) 0.14
RBM5 C766 (UniProt P52756) 0.594
UniProt P60228_C250 0.778

A portion taken from the entries so far, for reference:
log2 ratio of iodoacetamide-alkyne labeling, inactive:
PLK1 C405 (UniProt P53350) 0.726
MARS C566 (UniProt P56192) 0.0165
